Values joined by “and” are separate entries in the source; they are usually repeats but may differ in a detail not shown here. Equal entries are not always repeated. Hit rate of the full screen: of about 400,000 compounds, about 13,000 (3.2%) were called active. The inconclusive results got no clear call from the source; some entries with a clear call stand among them for comparison. The call rests on the fitted dose curve; in most records, active means well fitted cell-killing curve with a large enough effect; inconclusive means small, poorly fitted or top-dose-only effect, or effect the other way; inactive means flat fitted curve, though single readings scatter. Potencies beside an inconclusive call are fits to weak or partial responses and may not hold up.
Experiment: qHTS assay for MDR1-selective chemotherapeutics: Primary screen using the drug-selected MDR subline cells KB-V1; further: nearly all actives have a fitted effect of over 60% in size
Conditions: KB-V1 MDR cells viability, CellTiter-Glo, 72 h; activity change, negative = cytotoxicity: at 46.1 µM (top of the series)
How it was run: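 Luminescent ATP read-out (CellTiter-Glo, 10 min) measures survival of drug-selected KB-V1 MDR cells after 72 h, 37 degrees C compound exposure. Medium: phenol-red-free DMEM, 10% FBS. Values from fitted concentration-response curves.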
On the % scale 0 is the no-effect control and ±100 the full control effect; potency means the concentration at half of the fitted maximal effect.

Q: With `c1cncc(-c2nnc(C3CCCCC3)o2)c1` as the compound, how does the Potency read?
A: inconclusive: 18.4 µM [cytotoxic, single point]

Q: Which Potency does the source give for `COc1ccc(CN2C(=O)c3cccc4cccc2c34)cc1F` here?
A: inconclusive: 16.4 µM [cytotoxic, single point]

Q: With `N#C/C(=C(/O)c1cccc(F)c1)c1nc2ccccc2s1` as the compound, how does the Potency read?
A: active: 2.91 µM

Q: For `COC(=O)c1nnn(CC(=O)NC(=O)Nc2ccccc2F)c1C(=O)OC`, which Potency is on record?
A: inconclusive: 25.9 µM [rising, single point]

Q: With `Cc1nnc2sc(-c3csc4c3CCCC4)nn12` as the compound, how does the Potency read?
A: active: 7.31 µM

Q: Which Potency does the source give for `O=C(CCCOc1ccccc1)N1CCCc2ccccc21` here?
A: inconclusive: 23.1 µM [cytotoxic, single point]

Q: With `CNC(=S)N/N=C/c1c(C(=O)OC)cnn1-c1ccc(F)cc1F` as the compound, how does the Potency read?
A: inconclusive: 8.2 µM [cytotoxic, partial curve, poor fit]

Q: With `O=C(Cc1ccccc1)Nc1ccc(NC(=O)Cc2ccccc2)c(Cl)c1` as the compound, how does the Potency read?
A: inconclusive: 25.9 µM [rising, single point]

Q: With `Cc1noc(NS(=O)(=O)c2ccc(NC(=O)c3ccc(Br)cc3)cc2)c1C` as the compound, how does the Potency read?
A: inconclusive: 29.1 µM [rising, single point]

Q: Which Potency does the source give for `COC(=O)c1[nH]c2ccc(C)cc2c1NC(=O)CN1CCC(C)CC1` here?
A: inconclusive: 14.6 µM [cytotoxic, partial curve]

Q: With `O=C(CN1CCN(C2CCCCC2)CC1)Nc1cccc2ccccc12` as the compound, how does the Potency read?
A: inconclusive: 9.2 µM [cytotoxic, partial curve, poor fit]

Q: With `COc1ccc(C2C3=C(N=C4SCC(=O)N42)c2ccccc2CC3)cc1` (stereo not drawn) as the compound, how does the Potency read?
A: inconclusive: 20.6 µM [cytotoxic, single point]

Q: For `Cc1cc(C)nc(Nc2ncc(O)n2-c2ccc(C)c(Cl)c2)n1`, which “activity change, negative = cytotoxicity” value is on record?
A: inactive: -10.4%

Q: With `CCOC(=O)C1=C(C)NC(=O)NC1c1cn(-c2ccccc2)nc1-c1cccs1` (stereo not drawn) as the compound, how does the Potency read?
A: active: 20.6 µM

Q: Which Potency does the source give for `CCCN1C(=O)C(O)(C2CC(=O)CC(C)(C)O2)c2ccccc21` (stereo not drawn) here?
A: inconclusive: 29.1 µM [cytotoxic, single point]

Q: For `CCOC(=O)C1=C(COc2ccccc2)NC(=O)NC1c1ccc(Br)cc1` (stereo not drawn), which “activity change, negative = cytotoxicity” value is on record?
A: inactive: 5.87%

Q: For `COc1ccccc1NC(=O)CSc1ccc2nnc(-c3ccc(C)cc3)n2n1`, which Potency is on record?
A: inconclusive: 16.4 µM [cytotoxic, partial curve, poor fit]

Q: With `CC(C)[C@H](NS(=O)(=O)c1ccccc1)C(=O)OCC(=O)Nc1ccccc1Sc1ccccc1` as the compound, how does the Potency read?
A: inconclusive: 18.4 µM [cytotoxic, partial curve]

Q: Which Potency does the source give for `CCCOc1ccc(-c2c(C(=O)N/N=C/c3ccccc3OCC)nnn2-c2nonc2N)cc1` here?
A: inconclusive: 29.1 µM [rising, single point]

Q: For `Cc1ccc(CN2CC(C(=O)N3CCN(S(=O)(=O)c4cc(C)ccc4C)CC3)CC2=O)cc1` (stereo not drawn), which “activity change, negative = cytotoxicity” value is on record?
A: inactive: 0.772%

Q: With `CC(C)OC(=O)c1cc2c(ccn2C)n1CC(=O)N1CCC(Cc2ccccc2)CC1` as the compound, how does the Potency read?
A: inconclusive: 5.17 µM [cytotoxic, full curve]

Q: With `O=C(OCc1ccc(Br)cc1)c1cccc(S(=O)(=O)N2CCCC2)c1` as the compound, how does the Potency read?
A: inconclusive: 18.4 µM [cytotoxic, single point]

Q: For `O=C(Nc1nc(-c2ccc(S(=O)(=O)N3CCOCC3)cc2)cs1)c1ccccc1`, which Potency is on record?
A: inconclusive: 29.1 µM [cytotoxic, single point] and inconclusive: 23.1 µM [cytotoxic, single point]

Q: For `O=C(c1ccc(Oc2ccc([N+](=O)[O-])cc2)cc1)N1CCCCCC1`, which “activity change, negative = cytotoxicity” value is on record?
A: inactive: -19.6%

Q: With `COC(=O)C1=C(C)N(C)C(C)=C(C(=O)OC)C1c1cccc(Br)c1` as the compound, how does the Potency read?
A: inconclusive: 32.6 µM [cytotoxic, single point]

Q: With `CCCCN(CCCC)S(=O)(=O)c1ccc(OC)c2ncccc12` as the compound, how does the Potency read?
A: inconclusive: 0.411 µM [cytotoxic, full curve, poor fit]

Q: Which Potency does the source give for `O=[N+]([O-])c1ccccc1-c1cc(-c2cc(Cl)ccc2O)n[nH]1` here?
A: inconclusive: 20.6 µM [cytotoxic, single point]

Q: With `CCOc1ccccc1CNCc1ccc(F)cc1` as the compound, how does the “activity change, negative = cytotoxicity” value read?
A: inactive: -24.3%

Q: With `CCOc1cc(C(=S)N2CCOCC2)ccc1OS(=O)(=O)c1ccc(NC(C)=O)cc1` as the compound, how does the Potency read?
A: inconclusive: 29.1 µM [cytotoxic, single point]

Q: Which Potency does the source give for `O=C(NC(=S)N1CCN(c2nc(-c3ccccc3)cs2)CC1)c1cncc(Br)c1` here?
A: inconclusive: 29.1 µM [cytotoxic, single point]

Q: For `COC(=O)C1CCN(C(=O)COc2ccc(N(C)S(=O)(=O)c3ccc(C)cc3)cc2)CC1`, which Potency is on record?
A: inconclusive: 23.1 µM [cytotoxic, partial curve, poor fit]

Q: With `Cc1c(Oc2ccc(C(F)(F)F)cc2[N+](=O)[O-])ccc2c3c(c(=O)oc12)CCC3` as the compound, how does the Potency read?
A: inconclusive: 8.2 µM [cytotoxic, partial curve]

Q: With `CN(C)S(=O)(=O)c1cccc(NC(=O)COc2ccc3ccccc3c2)c1` as the compound, how does the Potency read?
A: inconclusive: 29.1 µM [cytotoxic, single point]

Q: For `CC(=O)c1ccc(-c2c(C)cc3oc(=O)cc(-c4ccccc4)c3c2C)cc1`, which “activity change, negative = cytotoxicity” value is on record?
A: inactive: 0.0002%

Q: Which Potency does the source give for `CCC(C(=O)N1CCN(c2cc(Cl)ccc2C)CC1)n1nc(C)n2c(cc3occc32)c1=O` (stereo not drawn) here?
A: active: 10.3 µM

Q: With `CCSc1nc2n(n1)C(c1ccc(CC)cc1)C(C(=O)Nc1ccccc1OC)=C(C)N2` (stereo not drawn) as the compound, how does the “activity change, negative = cytotoxicity” value read?
A: inactive: 2.52%

Q: For `O=C1C(Cc2ccccc2)C(c2ccccc2)N1c1ccccc1` (stereo not drawn), which Potency is on record?
A: active: 18.4 µM

Q: For `COc1ccc(-c2csc(NC(C)c3nc4cc(Cl)c(N5CCCCC5)cc4n3CCOCCO)n2)cc1` (stereo not drawn), which Potency is on record?
A: inconclusive: 3.66 µM [cytotoxic, partial curve, poor fit]

Q: Which “activity change, negative = cytotoxicity” value does the source give for `O=C(c1ccco1)N1CCN(C(=S)NCc2ccc(F)cc2)CC1` here?
A: inactive: -26.8%

Q: Which Potency does the source give for `CC[C@@H](C)[C@H](N)C(=O)NC[C@H]1O[C@@H](n2cnc3c(N)ncnc32)[C@H](O)[C@@H]1O` here?
A: inconclusive: 0.231 µM [cytotoxic, full curve]

Q: With `CCN(CC)c1cc(C)nc2nc(-c3ccc(C)cc3)nn12` as the compound, how does the “activity change, negative = cytotoxicity” value read?
A: inactive: 2.05%

Q: For `Cc1ccc(OC(C)C(=O)Nc2ccc3c(c2)n(C)c(=O)n3C)c(C)c1` (stereo not drawn), which “activity change, negative = cytotoxicity” value is on record?
A: inactive: -27.8%

Q: With `N/C(=N\S(=O)(=O)c1cc(C(F)(F)F)cc(C(F)(F)F)c1)c1cccs1` as the compound, how does the Potency read?
A: inconclusive: 29.1 µM [cytotoxic, single point]

— PubChem BioAssay AID1347076 (National Center for Advancing Translational Sciences (NCATS), 2019)
